Data taken from PMC6591361.
No constants are given. Whether binding was seen depends on the method and setting. Where a sequence is shown, tags or fusion partners need not be part of it. Each block holds one binder with its values, some of them ahead of it.

Target: T1, Strep-tagged latent human transforming growth factor-β2 (pro-TGF-β2) (human) (UniProt P61812)
T1 sequence: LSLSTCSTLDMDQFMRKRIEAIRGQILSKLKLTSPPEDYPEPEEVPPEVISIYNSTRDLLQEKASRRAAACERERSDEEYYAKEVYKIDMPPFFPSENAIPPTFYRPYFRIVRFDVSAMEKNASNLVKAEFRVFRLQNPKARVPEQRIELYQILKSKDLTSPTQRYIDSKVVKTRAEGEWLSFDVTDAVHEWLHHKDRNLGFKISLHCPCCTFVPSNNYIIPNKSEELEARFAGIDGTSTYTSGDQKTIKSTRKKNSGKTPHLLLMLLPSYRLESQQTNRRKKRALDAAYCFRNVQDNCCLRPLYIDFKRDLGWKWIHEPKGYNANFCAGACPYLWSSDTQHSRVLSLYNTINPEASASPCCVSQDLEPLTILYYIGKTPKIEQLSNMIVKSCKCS
Experiment: SPR; Strep-tagged pro-TGF-β2 (19.0 nM) captured on Streptactin XT on a CM5 chip; analytes injected in multicycle runs (4–600 nM authentic hα2M, 75–1,200 nM N-hα2M and C-hα2M); HBNS, 37 °C; both purified

- binding: no binding (tested: 4–600 nM)
B1: native authentic human α2-macroglobulin (protein, UniProt P01023 24-1474)
chain: SVSGKPQYMVLVPSLLHTETTEKGCVLLSYLNETVTVSASLESVRGNRSLFTDLEAENDVLHCVAFAVPKSSSNEEVMFLTVQVKGPTQEFKKRTTVMVKNEDSLVFVQTDKSIYKPGQTVKFRVVSMDENFHPLNELIPLVYIQDPKGNRIAQWQSFQLEGGLKQFSFPLSSEPFQGSYKVVVQKKSGGRTEHPFTVEEFVLPKFEVQVTVPKIITILEEEMNVSVCGLYTYGKPVPGHVTVSICRKYSDASDCHGEDSQAFCEKFSGQLNSHGCFYQQVKTKVFQLKRKEYEMKLHTEAQIQEEGTVVELTGRQSSEITRTITKLSFVKVDSHFRQGIPFFGQVRLVDGKGVPIPNKVIFIRGNEANYYSNATTDEHGLVQFSINTTNVMGTSLTVRVNYKDRSPCYGYQWVSEEHEEAHHTAYLVFSPSKSFVHLEPMSHELPCGHTQTVQAHYILNGGTLLGLKKLSFYYLIMAKGGIVRTGTHGLLVKQEDMKGHFSISIPVKSDIAPVARLLIYAVLPTGDVIGDSAKYDVENCLANKVDLSFSPSQSLPASHAHLRVTAAPQSVCALRAVDQSVLLMKPDAELSASSVYNLLPEKDLTGFPGPLNDQDNEDCINRHNVYINGITYTPVSSTNEKDMYSFLEDMGLKAFTNSKIRKPKMCPQLQQYEMHGPEGLRVGFYESDVMGRGHARLVHVEEPHTETVRKYFPETWIWDLVVVNSAGVAEVGVTVPDTITEWKAGAFCLSEDAGLGISSTASLRAFQPFFVELTMPYSVIRGEAFTLKATVLNYLPKCIRVSVQLEASPAFLAVPVEKEQAPHCICANGRQTVSWAVTPKSLGNVNFTVSAEALESQELCGTEVPSVPEHGRKDTVIKPLLVEPEGLEKETTFNSLLCPSGGEVSEELSLKLPPNVVEESARASVSVLGDILGSAMQNTQNLLQMPYGCGEQNMVLFAPNIYVLDYLNETQQLTPEIKSKAIGYLNTGYQRQLNYKHYDGSYSTFGERYGRNQGNTWLTAFVLKTFAQARAYIFIDEAHITQALIWLSQRQKDNGCFRSSGSLLNNAIKGGVEDEVTLSAYITIALLEIPLTVTHPVVRNALFCLESAWKTAQEGDHGSHVYTKALLAYAFALAGNQDKRKEVLKSLNEEAVKKDNSVHWERPQKPKAPVGHFYEPQAPSAEVEMTSYVLLAYLTAQPAPTSEDLTSATNIVKWITKQQNAQGGFSSTQDTVVALHALSKYGAATFTRTGKAAQVTIQSSGTFSSKFQVDNNNRLLLQQVSLPELPGEYSMKVTGEGCVYLQTSLKYNILPEKEEFPFALGVQTLPQTCDEPKAHTSFQISLSVSYTGSRSASNMAIVDVKMVSGFIPLKPTVKMLERSNHVSRTEVSSNHVLIYLDKVSNQTLSLFFTVLQDVPVRDLKPAIVKVYDYYETDEFAIAEYNAPCSKDLGNA
modifications: thioester bond intact (native form)

- binding: no binding (tested: 4–600 nM)
B2: methylamine-induced authentic human α2-macroglobulin (protein, UniProt P01023 24-1474)
chain: B1 chain
modifications: thioester bond opened by methylamine, producing a free cysteine
